The nature of this assay: qHTS Assay for Lipid Storage Modulators in Drosophila S3 Cells.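 As to cell number change: cells counted by Cell Tracker Red CMTPX staining in the red channel.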 Conditions: BODIPY lipid droplet fluorescence, 18-24 h; for cell number change: measured here: cell count max response, cells fed with added oleic acid. In short, it runs like this:
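Drosophila S3 cells got compounds at several concentrations plus oleic acid (400 uM solution). Laser-scanning cytometry with 488 nm excitation read lipid droplets at 500-530 nm and cells at 575-640 nm. Percent activity was relative to 20 uM Triacsin C.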

Where [1] appears, read: measured here: cell number channel AC50, cells fed with added oleic acid.
The mark [2] stands for this setting: measured here: lipid fluorescence (Fed channel) AC50, cells fed with added oleic acid.

Here are results for 61 compounds from PubChem BioAssay AID2685 (National Center for Advancing Translational Sciences (NCATS), 2010).

Each structure is given as a SMILES string. The list shows a part of the results. Further columns of the screen follow, without active or inactive calls. Compounds called inactive in the main read-out are mostly missing here. Words in brackets tell the shape of the fitted curve; partial curves, single points and poor fits give uncertain potencies.

As a reminder, the AC50 is the midpoint of the concentration-response curve, whichever way the signal moves. For `CS(=O)(=O)c1ccc(Cl)c(NC(=O)CN2CCCC2c2ccc3c(c2)OCCCO3)c1` (centres undefined), the cell number change was 30.2%. Under setting [1], the AC50 was 20.6 µM [rising, single point]. In addition, the AC50 under setting [2] is 25.9 µM [rising, single point].

On to `CCN(CC(=O)Nc1c(F)cccc1F)C(=O)c1nc2nc(C)cc(C)n2n1`, for which the cell number change was -2.14%. Further, the AC50 under setting [2] was 0.092 µM [falling, full curve, poor fit].

`COc1ccc(CCNC(=O)COC(=O)COc2c(C)cc(C)cc2C)cc1OC`: the cell number change is -5.25%. For the same compound, under setting [2], the AC50 is 4.11 µM [falling, partial curve].

Turning to `Cc1ccc(C)c(NC(=O)c2ccc3ccccc3n2)c1`, the cell number change was found to be 136%. Moreover, the AC50 under setting [1] was 0.366 µM [rising, full curve]. The AC50 under setting [2] is 0.411 µM [rising, full curve].

`CCNC(=S)N(CCN(CC)CC)Cc1cc2cc3c(cc2[nH]c1=O)OCO3`: the cell number change is 36.5%. Further, the concentration at half-maximal activity (AC50) under setting [1] is 32.6 µM [rising, partial curve, poor fit]. For the same compound, under setting [2], the half-maximal activity concentration (AC50) was 6.51 µM [rising, single point].

Take `COc1cc(CNc2ccc(CNc3ncn[nH]3)cc2)ccc1OCc1ccccc1`: the cell number change was -30.9%. The AC50 under setting [1] was 16.4 µM [falling, single point].

As to `COc1cc(N=C2C(=O)N3c4c(cccc42)C(C)=CC3(C)C)cc(OC)c1`, the cell number change is -11.7%. Under setting [2], the concentration at half-maximal activity (AC50) was 29.1 µM [falling, single point].

On to `O=C(NC(=S)NC1CCCCCC1)c1cncc(Br)c1`, for which the cell number change was determined as 19.2%. In addition, the concentration at half-maximal activity (AC50) under setting [2] is 5.8 µM [rising, full curve].

Consider `CC(=O)c1cccc(NC(=O)COC(=O)COc2ccc(Cl)cc2)c1`, for which the cell number change was 20.5%. The AC50 under setting [2] is 0.082 µM [rising, full curve, poor fit].

As to `COCCN(C(=O)COC(=O)c1ccc(Cl)s1)c1c(N)n(Cc2ccccc2)c(=O)[nH]c1=O`, the cell number change was determined as 2.56%.

As to `COCCN(CCOC)Cc1c(C)[nH]c2c(C)c(C)ccc2c1=O`, the cell number change was -35.2%. Moreover, the half-maximal activity concentration (AC50) under setting [1] was 25.9 µM [falling, single point]. Further, the half-maximal activity concentration (AC50) under setting [2] is 25.9 µM [falling, single point].

Take `Cc1ccc(NC(=O)CSCC(=O)N2CCN(c3cccc(C(F)(F)F)c3)CC2)cc1`: the cell number change was 1.47%. Besides, the AC50 under setting [2] was 29.1 µM [falling, single point].

With `COc1cc(CC(=O)OCC(=O)N2CC(C)CC(C)C2)cc(OC)c1OC` (centres undefined), the cell number change was -24.6%. In addition, under setting [1], the AC50 is 2.06 µM [falling, full curve, poor fit]. In addition, the half-maximal activity concentration (AC50) under setting [2] is 6.51 µM [falling, single point].

Regarding `NNC(=O)/C=C/c1ccc(Cl)cc1Cl`, the cell number change is 56.2%. Also, under setting [1], the AC50 was 29.1 µM [rising, single point]. Besides, the concentration at half-maximal activity (AC50) under setting [2] was 0.461 µM [rising, full curve, poor fit].

As to `Cc1cc(C)n(C(=O)Cn2nc([N+](=O)[O-])cc2C)n1`, the cell number change amounted to 7.52%.

As for `CC(C)(C)n1ncc2c(=O)n(CC(=O)Nc3ccccc3)cnc21`, the cell number change turned out to be 9.82%. The AC50 under setting [2] is 29.1 µM [rising, single point].

As for `CC(C)Cc1nnc(NC(=O)CCC(=O)N2CCN(c3ccccc3)CC2)s1`, the cell number change turned out to be 11.6%. Also, under setting [1], the AC50 is 8.2 µM [rising, partial curve, poor fit].

Turning to `Cc1ccc2c(COC(=O)C34CC5CC(CC(C5)C3)C4)cc(=O)oc2c1`, the cell number change was 0.489%. The AC50 under setting [2] was 0.103 µM [rising, full curve, poor fit].

Turning to `CN(C)/C=C/C(=O)c1ccc(F)cc1`, the cell number change is -23.1%. Under setting [2], the AC50 was 29.1 µM [falling, single point].

Regarding `COc1cccc(OC)c1C(=O)OCC(=O)NC1CCCCCC1`, the cell number change is -29.9%. In addition, the concentration at half-maximal activity (AC50) under setting [2] was 0.731 µM [falling, full curve].

`O=c1[nH]c2ccccc2nc1/C=C/c1ccccc1`: the cell number change was -16.5%. The AC50 under setting [2] is 32.6 µM [falling, single point].

Take `O=C(CN1CCCC1)NCC12CC3CC(CC(C3)C1)C2`: the cell number change is 31.2%. Under setting [1], the half-maximal activity concentration (AC50) was 32.6 µM [rising, single point].

Regarding `CCC(=O)Oc1ccc(C(=O)Nc2ccc([N+](=O)[O-])cc2)cc1`, the cell number change turned out to be 11%.

For the compound `N#CCCN(Cc1cccnc1)C(=S)Nc1ccccc1Cl`, the AC50 runs as follows: under setting [1], 6.51 µM [rising, single point]; under setting [2], 0.731 µM [rising, full curve].

Consider `COc1ccc(S(N)(=O)=O)cc1C(=O)NNC(=O)CN(C)S(=O)(=O)c1ccc(Cl)cc1`, for which the cell number change is -20.7%. The concentration at half-maximal activity (AC50) under setting [2] is 3.26 µM [falling, partial curve, poor fit].

As for `CCOc1cc(C(c2c(C)[nH][nH]c2=O)c2c(C)[nH][nH]c2=O)ccc1O`, the cell number change stood at 8.93%. Also, the half-maximal activity concentration (AC50) under setting [2] was 14.6 µM [falling, partial curve].

On to `COc1cccc(C2C(C#N)=C(N)OC(C(C)(C)C)=C2C#N)c1` (centres undefined), for which the cell number change was -35.1%. For the same compound, the AC50 under setting [1] was 7.31 µM [falling, partial curve].

For `CC(C)NC(=O)CN(C(=O)CCC(=O)Nc1ccccn1)c1ccc(F)c(Cl)c1`, the cell number change was -9.15%.

As for `N#Cc1ccccc1NC(=O)c1ccccc1OCC(=O)NCc1ccco1`, the concentration at half-maximal activity (AC50) under setting [2] was 6.51 µM [rising, partial curve, poor fit].

`Cc1ccc2nc(C)cc(C(=O)N/N=C/c3ccncc3)c2c1`: the cell number change was 15.8%. Under setting [2], the AC50 was 0.794 µM [rising, full curve, poor fit].

Consider `O=C(CCc1ccccc1)NCc1ccc2c(c1)OCO2`, for which the cell number change is 9.89%. In addition, the concentration at half-maximal activity (AC50) under setting [2] is 13 µM [rising, partial curve].

With `COc1ccc(N2CCN(C(=O)CN(C3CCCCC3)S(C)(=O)=O)CC2)cc1`, the cell number change is -29.3%. The concentration at half-maximal activity (AC50) under setting [2] is 1.3 µM [falling, full curve].

As for `CCN(c1ccccc1)S(=O)(=O)c1ccc(Cl)c(NC(=O)Nc2ccc(Cl)cc2C#N)c1`, the cell number change turned out to be 19.9%. Further, under setting [2], the AC50 was 4.11 µM [rising, single point].

For the compound `CS(=O)(=O)Nc1cccc(C2=NN(C(=O)c3ccccc3)C(c3cccs3)C2)c1` (centres undefined), the cell number change is -18.1%.

For the compound `Cc1occc1C(=O)NC1CCCCCCC1`, the cell number change was found to be 21.2%. For the same compound, the half-maximal activity concentration (AC50) under setting [2] was 2.91 µM [rising, single point].

For `C=CCSc1nnc(-c2ccccc2NC(=O)CC)c(=O)[nH]1`, the cell number change was -8.89%. Moreover, the concentration at half-maximal activity (AC50) under setting [2] was 4.11 µM [falling, full curve].

As for `C=CCc1cccc(CNc2cnc3ccccc3c2)c1O`, the cell number change is -46.4%. The concentration at half-maximal activity (AC50) under setting [1] was 20.6 µM [falling, single point].

Turning to `Cc1ccc(SCc2ccc(C(=O)Nc3cccnc3)cc2)cc1`, the cell number change stood at 16.7%.

As to `CCN(CC)C(=O)c1[nH]cnc1C(=O)N[C@H](C)c1ccccc1`, the cell number change was -12.2%. Moreover, the AC50 under setting [2] was 2.06 µM [falling, single point].

As for `Brc1ccc(-c2csc(N/N=C/c3ccco3)n2)cc1`, the cell number change is 24.1%.

With `CCC(C)C(=O)Nn1c(C2CC2)nc2cc(OC)c(OC)cc2c1=O` (centres undefined), the cell number change came out at 32.1%. Also, under setting [2], the concentration at half-maximal activity (AC50) was 16.4 µM [rising, single point].

Consider `CCN1CCN(C(=O)CSc2ccc(C)cc2)CC1`, for which the cell number change was -2.47%. In addition, the AC50 under setting [2] is 29.1 µM [rising, single point].

Turning to `O=C(NCCN1CCN(C(=O)C(c2ccccc2)c2ccccc2)CC1)C(=O)Nc1ccccc1`, the cell number change worked out at 169%. Also, the half-maximal activity concentration (AC50) under setting [2] is 18.4 µM [rising, partial curve].

Take `COc1cc(C2CC(c3cccnc3)=NN2c2ccc(F)cc2)cc(OC)c1OC` (centres undefined): the cell number change amounted to 44.4%. Also, the AC50 under setting [1] was 29.1 µM [rising, single point]. Besides, the AC50 under setting [2] was 29.1 µM [rising, single point].

`CC(CNC(=O)CN1C(=O)c2cccnc2Oc2ccc(Cl)cc21)c1ccccc1` (centres undefined): the AC50 under setting [2] is 23.1 µM [falling, single point].

For the compound `CCOc1ccc(NC(=O)CSc2nnc(-c3ccccn3)n2N)cc1`, the cell number change turned out to be 6.94%.

Take `NC(=O)C1CCN(C(=O)c2ccc(-c3ccccc3Cl)o2)CC1`: the cell number change was found to be 8.58%.

Turning to `Cc1ccc(NC(=O)CC2NCCNC2=O)cc1` (centres undefined), the cell number change stood at 11.5%. Under setting [2], the concentration at half-maximal activity (AC50) was 6.51 µM [rising, single point].

`COC(=O)c1[nH]c2ccc(F)cc2c1NS(=O)(=O)c1ccc(OC)cc1OC`: the AC50 under setting [1] is 0.517 µM [rising, single point].

In the case of `CC1CC(C)CN(CCOc2ccc(Br)cc2)C1` (centres undefined), the cell number change is -20.5%. Also, under setting [1], the AC50 is 0.13 µM [falling, full curve, poor fit]. For the same compound, the concentration at half-maximal activity (AC50) under setting [2] is 0.651 µM [falling, full curve].

Consider `CCOc1ccc(CCNC(=O)C2CCCN(S(=O)(=O)N3CC(C)CC(C)C3)C2)cc1OCC` (centres undefined), for which the cell number change is -1.53%. In addition, under setting [2], the AC50 was 29.1 µM [rising, single point].

Take `O=C(Nc1c(Cl)cccc1Cl)c1cc(=O)n(Cc2ccccc2)c(=O)[nH]1`: the half-maximal activity concentration (AC50) under setting [2] is 0.651 µM [falling, single point].

As for `Cc1c(C)n(C)c2ccc(C(=O)NCCCN3CCOCC3)cc12`, the cell number change was determined as 15.3%. Moreover, under setting [2], the AC50 is 29.1 µM [falling, single point].

Regarding `COc1ccc(CNc2cccc(F)c2)cc1Br`, the cell number change was -26.6%. The concentration at half-maximal activity (AC50) under setting [2] was 23.1 µM [falling, single point].

As for `O=C(Cc1ccc([N+](=O)[O-])cc1)N1N=C(c2ccncc2)CC1(O)C(F)(F)F` (centres undefined), the half-maximal activity concentration (AC50) under setting [1] is 0.461 µM [rising, single point].

`CN(C)C(CNC(=O)C1CCN(S(=O)(=O)c2ccccc2C(F)(F)F)CC1)Cc1ccccc1` (centres undefined): the cell number change worked out at 7.26%. For the same compound, the concentration at half-maximal activity (AC50) under setting [2] was 29.1 µM [rising, single point].

On to `Cc1ccc(C)c(C(=O)c2c(C)nc3sccn23)c1`, for which the cell number change is -21%. For the same compound, the AC50 under setting [2] is 0.00461 µM [falling, full curve, poor fit].

Take `CC(=O)c1cccc(OCC(=O)N2CCN(c3ccc(C(F)(F)F)cn3)CC2)c1`: the cell number change was 8.94%.

`O=C(COC(=O)Cn1[nH]c(=O)c2ccccc2c1=O)Nc1ncc(Cl)cc1Cl`: the cell number change is -6.62%. In addition, the concentration at half-maximal activity (AC50) under setting [2] was 6.51 µM [rising, partial curve].

`COc1ccc(C(C)=O)cc1CSc1nc2ccccc2o1`: the AC50 under setting [2] is 0.58 µM [falling, single point].

In the case of `C[C@@H]1O[C@@H](O[C@H]2[C@H](Oc3cc(O)c4c(c3)O[C@H](c3ccc(O)cc3)CC4=O)O[C@H](CO)[C@@H](O)[C@@H]2O)[C@H](O)[C@H](O)[C@H]1O`, the cell number change was determined as 91.7%. Also, under setting [1], the half-maximal activity concentration (AC50) is 9.2 µM [rising, partial curve].
